The text below walks through data of US7081343.

Chains of the proteins cited; added tags and fusions are not shown. Lines headed by an entry give the natural chain unless they say otherwise; changes in a name come on top. Residues count along the entry.
UniProt Q04206: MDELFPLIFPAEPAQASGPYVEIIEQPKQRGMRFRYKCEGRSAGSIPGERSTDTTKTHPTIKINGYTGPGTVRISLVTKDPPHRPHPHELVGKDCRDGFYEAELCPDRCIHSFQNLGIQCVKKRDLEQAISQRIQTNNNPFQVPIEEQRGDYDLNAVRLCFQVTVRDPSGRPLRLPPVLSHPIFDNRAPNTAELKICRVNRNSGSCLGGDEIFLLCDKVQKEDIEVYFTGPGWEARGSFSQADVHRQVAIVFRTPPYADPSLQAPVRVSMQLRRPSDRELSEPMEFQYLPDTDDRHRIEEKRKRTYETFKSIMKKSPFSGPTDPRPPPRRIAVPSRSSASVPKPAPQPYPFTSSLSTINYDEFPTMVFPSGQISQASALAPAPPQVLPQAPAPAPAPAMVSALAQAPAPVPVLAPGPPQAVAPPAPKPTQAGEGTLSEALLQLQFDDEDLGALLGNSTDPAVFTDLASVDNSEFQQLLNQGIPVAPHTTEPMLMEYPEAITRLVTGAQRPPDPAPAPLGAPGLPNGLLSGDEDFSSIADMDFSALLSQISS
RelA N-terminal 180 amino acids (mammalian two-hybrid construct): residues 1-180 of Q04206
UniProt O15379: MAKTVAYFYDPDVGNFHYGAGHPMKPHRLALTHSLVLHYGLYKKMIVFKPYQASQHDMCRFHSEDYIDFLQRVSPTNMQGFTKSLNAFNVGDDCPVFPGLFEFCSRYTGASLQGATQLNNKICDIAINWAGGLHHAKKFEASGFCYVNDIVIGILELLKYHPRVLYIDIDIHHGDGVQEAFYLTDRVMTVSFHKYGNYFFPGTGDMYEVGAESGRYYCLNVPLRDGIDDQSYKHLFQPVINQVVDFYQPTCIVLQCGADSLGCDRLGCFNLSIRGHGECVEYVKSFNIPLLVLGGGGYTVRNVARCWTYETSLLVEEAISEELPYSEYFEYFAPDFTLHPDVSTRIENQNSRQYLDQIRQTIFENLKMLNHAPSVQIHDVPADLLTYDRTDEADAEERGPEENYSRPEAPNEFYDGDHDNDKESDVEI

No constants are given. Whether binding was seen depends on the method and setting. For part of these data: In cells and extracts the contact can be indirect. Some binding calls cover weakened binding; strength is not graded here.

Experiment [1] addresses T7-RelA (UniProt Q04206). Nature of the experiment: co-immunoprecipitation of HDAC3 deletion mutants with RelA.
Experiment [2] has as its target RelA N-terminal 180 amino acids (mammalian two-hybrid construct) (UniProt Q04206). The experiment is described as follows: mammalian two-hybrid assay (FIG. 3E).
Experiment [3] shares this target. The experiment is described as follows: mammalian two-hybrid assay.

With “HDAC3 (1-406) (from UniProt O15379 1-406) (enzyme)”, the binding entry in experiment [1] is given as “binds”.
Regarding “HDAC3 (mammalian two-hybrid construct) (from UniProt O15379 1-428) (enzyme)”, the binding entry in experiment [2] and in experiment [3] was “binds” each time.
